{"source": "patent US8586708B2", "about": "“Monovalent streptavidin compositions” (Massachusetts Institute of Technology, priority 2005, dated 2013)", "experiment": "Off-rate assay of biotin-4-fluorescein from streptavidin (fluorescence recovery)", "format": "binding", "conditions": "in 12 hours at 37° C., excess competing biotin", "note": "Some results were stated once for a whole list of compounds, not compound by compound.", "data": [{"substance": "A1D3: chimeric streptavidin tetramer with one Alive (wild-type, His6-tagged) subunit and three Dead (N23A, S27D, S45A) subunits [Tetramer A1D3]", "values": [{"measurement": "dissociation of biotin-4-fluorescein", "result": "less than 10%"}]}]}
